Some compounds share one wording; it may come from a single statement.
Test: RBOT, standard ASTM D2272 (150 C.), bomb life
Format: physicochemical
Details: antioxidant with Triadine 3; baseline 0.5% Triadine-3
Excerpt: The antioxidants used in this study were received from internal and external commercial sources without alteration. The sample of butylated DPA was from a preparation of Naugalube 640 in which the sample was enriched in butylated DPA.
The ASTM D2272 method was run according to the standard procedure using a 10/90 (oil/water) emulsion as a test sample.

In the case of “3,5-di-t-butyl-4-hydroxy-hydrocinnamic acid C7-C9 branched alkyl ester [Naugalube 531]”, the “synergy with biocide / benefit over baseline in ASTM D2272 testing” value is reported as “no significant benefit over the baseline”.
In the case of `CC(C)(C)c1cc(CCC(=O)OCCSCCOC(=O)CCc2cc(C(C)(C)C)c(O)c(C(C)(C)C)c2)cc(C(C)(C)C)c1O` [AX 15, Thiodiethylene-bis(3,5-di-t-butyl-4-hydroxyhydrocinnamate)], the “synergy with biocide / benefit over baseline in ASTM D2272 testing” value is reported as “no significant benefit over the baseline”.
With `Cc1cc(C(C)(C)C)c(O)c(C(C)(C)C)c1` [BHT, 2,6-di-t-butyl hydroxytoluene] the “synergy with biocide / benefit over baseline in ASTM D2272 testing” value was “no significant benefit over the baseline”.
For “butylated octylated diphenylamine [Naugalube 640]”, the “synergy with biocide / benefit over baseline in ASTM D2272 testing” value was “large improvement in performance”.
In the case of “butylated octylated diphenylamine [butylated DPA]”, the “synergy with biocide / benefit over baseline in ASTM D2272 testing” value is reported as “large synergy”.
For “mono-, di-, and tri-, nonylated diphenylamine [Naugalube 438L]”, the “synergy with biocide / benefit over baseline in ASTM D2272 testing” value was “large improvement in performance”.
In the case of “octylated phenyl-α-naphthylamine [Naugalube APAN]”, the “synergy with biocide / benefit over baseline in ASTM D2272 testing” value is reported as “no significant benefit over the baseline”.

From patent US7569526B2, “Anti-oxidants in soluble oil base for metal working fluids” (Crompton Corporation, priority 2003, dated 2009)
